The supplement of paper PMC9744312
Counter-ions that a name gives are not always drawn. The list shows a part of the results. This is a noisy data set.

test system: Peyronie's disease tunica albuginea primary fibroblasts; test: inhibition of TGF-beta1-induced alpha-SMA expression (myofibroblast transformation), relative to TGF-beta1-only and untreated controls; higher = stronger inhibition of myofibroblast transformation; conditions: 10 µM; TGF-beta1 10 ng/mL; 72 h

SMILES | inhibition of TGF-beta1-induced alpha-SMA expression
COc1ccc(CC2c3cc(OC)c(OC)cc3CC[N+]2(C)CCC(=O)OCCCCCOC(=O)CC[N+]2(C)CCc3cc(OC)c(OC)cc3C2Cc2ccc(OC)c(OC)c2)cc1OC (configuration not stated) [Atracurium Besylate] | 38.7%
CN(C)c1ccc(C(=C2C=CC(=[N+](C)C)C=C2)c2ccc(N(C)C)cc2)cc1 [Crystal Violet] | > 100%
CC(C(=O)O)c1ccc2c(c1)CC(=O)c1ccccc1S2 (configuration not stated) [Zaltoprofen] | 12.4%
CCN(CCO)CCCC(C)Nc1ccnc2cc(Cl)ccc12 (configuration not stated) [Hydroxychloroquine Sulfate] | 54.8%
Cc1nc(Nc2ncc(C(=O)Nc3c(C)cccc3Cl)s2)cc(N2CCN(CCO)CC2)n1 [Dasatinib Monohydrate] | > 100%
Cc1nc(Nc2ncc(C(=O)Nc3c(C)cccc3Cl)s2)cc(N2CCN(CCO)CC2)n1 [Dasatinib] | > 100%
Cc1nc(Nc2ncc(C(=O)Nc3c(C)cccc3Cl)s2)cc(N2CCN(CCO)CC2)n1 [Dasatinib hydrochloride] | 93.7%
CCCCN1CCCCC1C(=O)Nc1c(C)cccc1C (configuration not stated) [Bupivacaine HCl] | 27.1%
CO/N=C1\C[C@]2(C[C@@H]3C[C@@H](C/C=C(\C)C[C@@H](C)/C=C/C=C4\CO[C@@H]5[C@H](O)C(C)=C[C@@H](C(=O)O3)[C@]45O)O2)O[C@H](/C(C)=C/C(C)C)[C@H]1C [Moxidectin] | 57.5%
C=C1/C(=C\C=C2/CCC[C@]3(C)[C@@H]([C@H](C)/C=C/[C@H](C)C(C)C)CC[C@@H]23)C[C@@H](O)C[C@@H]1O [Doxercalciferol] | -47.3%
CC(C)(C)c1ccc(C(O)CCCN2CCC(C(O)(c3ccccc3)c3ccccc3)CC2)cc1 (configuration not stated) [Terfenadine] | 90.5%
COc1cc(NC(C)CCCN)c2ncccc2c1 (configuration not stated) [Primaquine Diphosphate] | 13.5%
CC(=O)CC/C=C(\C)CC/C=C(\C)CC/C=C(\C)CCC=C(C)C [Teprenone] | 19.1%
CC/C(=C(/CC)c1ccc(O)cc1)c1ccc(O)cc1 [Diethylstilbestrol] | -15%
CC1=C(/C=C/C(C)=C/C=C/C(C)=C\C(=O)O)C(C)(C)CCC1 [Isotretinoin] | -39.5%
CSc1ccc2c(c1)N(CCC1CCCCN1C)c1ccccc1S2 (configuration not stated) [Thioridazine hydrochloride] | 80.1%
Cc1cc(-c2ccccc2)nnc1NCCN1CCOCC1 [Minaprine dihydrochloride] | > 100%
NC(N)=Nc1nc(CSCC/C(N)=N/S(N)(=O)=O)cs1 [Famotidine] | 17.1%
CCCCCCCCCCCCCCCCOc1nc2ccc(C)cc2c(=O)o1 [Cetilistat] | 10.4%
CN(C)[C@@H]1C(O)=C(C(N)=O)C(=O)[C@@]2(O)C(O)=C3C(=O)c4c(O)cccc4[C@@](C)(O)[C@H]3[C@H](O)[C@@H]12 [Oxytetracycline (Terramycin)] | 13.4%
CN(C)[C@@H]1C(O)=C(C(N)=O)C(=O)[C@@]2(O)C(O)=C3C(=O)c4c(O)cccc4[C@@](C)(O)[C@H]3[C@H](O)[C@@H]12 [Oxytetracycline Dihydrate] | -8.86%
COc1cc(OC)c(/C=C/S(=O)(=O)Cc2ccc(OC)c(NCC(=O)O)c2)c(OC)c1 | 95.7%
CCCCCCCCCCCCCCCCOP(=O)([O-])OCC[N+](C)(C)C [Miltefosine] | 2.06%

SMILES | inhibition of TGF-beta1-induced alpha-SMA expression
CN(C)c1ccc(O)c2c1C[C@H]1C[C@H]3[C@H](N(C)C)C(O)=C(C(N)=O)C(=O)[C@@]3(O)C(O)=C1C2=O [Minocycline HCl] | 37.5%
CSCCNc1nc(SCCC(F)(F)F)nc2c1ncn2[C@@H]1O[C@H](COP(=O)(O)OP(=O)(O)C(Cl)(Cl)P(=O)(O)O)[C@@H](O)[C@H]1O [Cangrelor Tetrasodium] | 44.7%
C[N+](C)(C)CCOC(=O)CCC(=O)OCC[N+](C)(C)C [Succinylcholine Chloride Dihydrate] | 6.34%
O=C(O)CCCC[C@@H]1CCSS1 (racemic) [Thioctic acid] | 12.1%
Nc1nc(NC2CC2)c2ncn([C@H]3C=C[C@@H](CO)C3)c2n1 [Abacavir sulfate] | -2.47%
Nc1nc(NC2CC2)c2ncn([C@H]3C=C[C@@H](CO)C3)c2n1 [Abacavir] | -14.1%
CCOc1ccc2nc3cc(N)ccc3c(N)c2c1 [Ethacridine lactate monohydrate] | > 100%
CN(Cc1cnc2nc(N)nc(N)c2n1)c1ccc(C(=O)N[C@@H](CCC(=O)O)C(=O)O)cc1 [Methotrexate disodium] | 7.94%
CN(Cc1cnc2nc(N)nc(N)c2n1)c1ccc(C(=O)N[C@@H](CCC(=O)O)C(=O)O)cc1 [Methotrexate] | -22.5%
CC(C)(C)CC(C)(C)c1ccc(O)c(Cc2ccc(Cl)cc2Cl)c1 [Clofoctol] | 47.7%
CN1CCN(c2c(F)cc3c(=O)c(C(=O)O)cn4c3c2OCN4C)CC1 [Marbofloxacin] | 22.6%
CCOC(=O)c1ccc(N)cc1 [Benzocaine] | 4.88%
CCOC(=O)c1ccc(N)cc1 [Benzocaine hydrochloride] | 4.45%
CCN(CC)CCOC(=O)C(c1ccccc1)c1ccccc1 [Adiphenine HCl] | 19.2%
OC(CCCN1CCCCC1)(c1ccccc1)c1ccccc1 [Diphenidol HCl] | -1.56%
C[C@]12CC[C@@H]3c4ccc(OS(=O)(=O)O)cc4CC[C@H]3[C@@H]1CCC2=O [Estropipate] | 40%
CCCCCCCCCCCC[N+](C)(C)CCOc1ccccc1 [Domiphen Bromide] | > 100%
CC(O)c1ccc(S(=O)(=O)NC(=O)NC2CCCCC2)cc1 (configuration not stated) [Hydroxyhexamide] | 11%
Cc1ccc(-n2nc(C(C)(C)C)cc2NC(=O)Nc2ccc(OCCN3CCOCC3)c3ccccc23)cc1 [Doramapimod (BIRB 796)] | 18.1%
Cc1cc(-c2ccc(/N=N/c3ccc4c(S(=O)(=O)O)cc(S(=O)(=O)O)c(N)c4c3O)c(C)c2)ccc1/N=N/c1ccc2c(S(=O)(=O)O)cc(S(=O)(=O)O)c(N)c2c1O [Evans Blue] | 7.3%
CN(C)Cc1ccc(S(=O)(=O)n2ccc(/C=C/C(=O)NO)c2)cc1 [Resminostat] | > 100%
CC[C@H](C)C[C@H](C)CCCCCCCCC(=O)N[C@H]1C[C@@H](O)[C@@H](NCCN)NC(=O)[C@@H]2[C@@H](O)CCN2C(=O)[C@H]([C@H](O)CCN)NC(=O)[C@H]([C@H](O)[C@@H](O)c2ccc(O)cc2)NC(=O)[C@@H]2C[C@@H](O)CN2C(=O)[C@H]([C@@H](C)O)NC1=O [Caspofungin Acetate] | 29.1%
CN(C)CC/C=C1/c2ccccc2COc2ccc(CC(=O)O)cc21 [Olopatadine HCl] | -13%

Laid out differently: results already given
SMILES	inhibition of TGF-beta1-induced alpha-SMA expression
CC(O)c1ccc(S(=O)(=O)NC(=O)NC2CCCCC2)cc1 (configuration not stated) [Hydroxyhexamide]	11%
Cc1ccc(-n2nc(C(C)(C)C)cc2NC(=O)Nc2ccc(OCCN3CCOCC3)c3ccccc23)cc1 [Doramapimod (BIRB 796)]	18.1%
Cc1cc(-c2ccc(/N=N/c3ccc4c(S(=O)(=O)O)cc(S(=O)(=O)O)c(N)c4c3O)c(C)c2)ccc1/N=N/c1ccc2c(S(=O)(=O)O)cc(S(=O)(=O)O)c(N)c2c1O [Evans Blue]	7.3%

More results follow:

SMILES | inhibition of TGF-beta1-induced alpha-SMA expression
CC(C(=O)O)c1ccc(C(=O)c2ccccc2)s1 (configuration not stated) [Tiaprofenic acid] | 34.5%
O=C1CCCC(=O)C1C(=O)c1ccc(C(F)(F)F)cc1[N+](=O)[O-] [Nitisinone] | -5.84%
C=CC(=O)Nc1cccc(Oc2nc(Nc3ccc(N4CCN(C)CC4)cc3)nc3ccsc23)c1 | > 100%
C[C@H](NC(=O)C(=O)Nc1ccccc1C(C)(C)C)C(=O)N[C@@H](CC(=O)O)C(=O)COc1c(F)c(F)cc(F)c1F [Emricasan] | 11.4%
CC(=O)N(CC(O)CN(C(C)=O)c1c(I)c(C(=O)NCC(O)CO)c(I)c(C(=O)NCC(O)CO)c1I)c1c(I)c(C(=O)NCC(O)CO)c(I)c(C(=O)NCC(O)CO)c1I (configuration not stated) [Iodixanol] | 22.6%
CC(=O)OCC(=O)[C@H]1CC[C@H]2[C@@H]3CCC4=CC(=O)CC[C@]4(C)[C@H]3CC[C@]12C [Deoxycorticosterone acetate] | 51.1%
C#C[C@]1(O)CC[C@H]2[C@@H]3CCC4=CC(=O)CC[C@@H]4[C@H]3CC[C@@]21CC [Levonorgestrel] | 31.4%
N=C(N)NCCN1CCCCCCC1 [Guanethidine Monosulfate] | -5.53%
N=C(N)NCCN1CCCCCCC1 [Guanethidine Sulfate] | 6.05%
CC1(C)[C@@H](OC(=O)CCC(=O)O)CC[C@]2(C)[C@H]3C(=O)C=C4[C@@H]5C[C@@](C)(C(=O)O)CC[C@]5(C)CC[C@@]4(C)[C@]3(C)CC[C@@H]12 [Carbenoxolone Sodium] | -9.92%
CC(CN(C)C)CN1c2ccccc2Sc2ccccc21 (configuration not stated) [Alimemazine Tartrate] | 87.7%
C[C@@H]1COC(Nc2ccc3ncnc(Nc4ccc(OCc5nccs5)c(Cl)c4)c3c2)=N1 [Varlitinib] | 53.9%
C[C@]1(Cn2ccnn2)[C@H](C(=O)O)N2C(=O)C[C@H]2S1(=O)=O [Tazobactam] | 13.9%
CC[C@@H](CO)NCCN[C@@H](CC)CO [Ethambutol 2HCl] | 5.44%
CC(C)C[C@H](NC(=O)CNC(=O)c1cc(Cl)ccc1Cl)B1OC(=O)C(CC(=O)O)(CC(=O)O)O1 [Ixazomib Citrate (MLN9708)] | > 100%
CCN(CC)CCOCCOC(=O)C(CC)(CC)c1ccccc1 [Oxeladin Citrate] | 6.66%
CCCOc1ccc(C(=O)OCCN(CC)CC)cc1N [Proparacaine HCl] | 3.84%
COC(=O)Nc1nc2cc([S+]([O-])c3ccccc3)ccc2[nH]1 (configuration not stated) [Oxfendazole] | 13.8%
COc1ccccc1OCC(O)COC(N)=O (configuration not stated) [Methocarbamol] | 15.2%
Nc1ccn([C@@H]2CS[C@H](CO)O2)c(=O)n1 [Lamivudine] | 47.2%
CCc1c(Cl)c(O)c(Cl)c(O)c1C(=O)O[C@H]1[C@H](O)[C@H](OC)[C@H](OC/C2=C\C=C\C[C@H](O)/C(C)=C/[C@H](CC)[C@@H](O[C@@H]3OC(C)(C)[C@@H](OC(=O)C(C)C)[C@H](O)[C@@H]3O)/C(C)=C/C(C)=C/C[C@@H]([C@@H](C)O)OC2=O)O[C@@H]1C [Fidaxomicin] | 20.6%
